Measured values reported in PMC3113324, “AKAP5 and AKAP12 Form Homo-oligomers” (Journal of Molecular Signaling, 2011).
These are yes or no findings as the source states them, for the method shown. For part of these data: Sequences can lack the tags named with a protein. Blank lines part the entries; values can stand above or below the binder they belong to.

Assays:
Experiment in all cases: SDS-PAGE in 8 M urea; whole-cell lysates of HEK293 cells treated with and resolved on SDS-PAGE in the presence of 8 M urea; immunoblot with anti-HA or anti-AKAP12
[1] = target: full-length endogenous AKAP12 (human (endogenous in HEK293)) (UniProt Q02952)
[2] = target: HA-AKAP12 (840-1782) (human) (UniProt Q02952)
[3] = target: HA-AKAP12 (1-938) (human) (UniProt Q02952)

binding [1]: no binding (condition: with 8 M urea)
B1: full-length endogenous AKAP12 (natural protein, human (endogenous in HEK293), UniProt Q02952 1-1782, looked up)
chain: MGAGSSTEQRSPEQPPEGSSTPAEPEPSGGGPSAEAAPDTTADPAIAASDPATKLLQKNGQLSTINGVAEQDELSLQEGDLNGQKGALNGQGALNSQEEEEVIVTEVGQRDSEDVSKRDSDKEMATKSAVVHDITDDGQEETPEIIEQIPSSESNLEELTQPTESQANDIGFKKVFKFVGFKFTVKKDKTEKPDTVQLLTVKKDEGEGAAGAGDHKDPSLGAGEAASKESEPKQSTEKPEETLKREQSHAEISPPAESGQAVEECKEEGEEKQEKEPSKSAESPTSPVTSETGSTFKKFFTQGWAGWRKKTSFRKPKEDEVEASEKKKEQEPEKVDTEEDGKAEVASEKLTASEQAHPQEPAESAHEPRLSAEYEKVELPSEEQVSGSQGPSEEKPAPLATEVFDEKIEVHQEEVVAEVHVSTVEERTEEQKTEVEETAGSVPAEELVEMDAEPQEAEPAKELVKLKETCVSGEDPTQGADLSPDEKVLSKPPEGVVSEVEMLSSQERMKVQGSPLKKLFTSTGLKKLSGKKQKGKRGGGDEESGEHTQVPADSPDSQEEQKGESSASSPEEPEEITCLEKGLAEVQQDGEAEEGATSDGEKKREGVTPWASFKKMVTPKKRVRRPSESDKEDELDKVKSATLSSTESTASEMQEEMKGSVEEPKPEEPKRKVDTSVSWEALICVGSSKKRARRGSSSDEEGGPKAMGGDHQKADEAGKDKETGTDGILAGSQEHDPGQGSSSPEQAGSPTEGEGVSTWESFKRLVTPRKKSKSKLEEKSEDSIAGSGVEHSTPDTEPGKEESWVSIKKFIPGRRKKRPDGKQEQAPVEDAGPTGANEDDSDVPAVVPLSEYDAVEREKMEAQQAQKSAEQPEQKAATEVSKELSESQVHMMAAAVADGTRAATIIEERSPSWISASVTEPLEQVEAEAALLTEEVLEREVIAEEEPPTVTEPLPENREARGDTVVSEAELTPEAVTAAETAGPLGAEEGTEASAAEETTEMVSAVSQLTDSPDTTEEATPVQEVEGGVPDIEEQERRTQEVLQAVAEKVKEESQLPGTGGPEDVLQPVQRAEAERPEEQAEASGLKKETDVVLKVDAQEAKTEPFTQGKVVGQTTPESFEKAPQVTESIESSELVTTCQAETLAGVKSQEMVMEQAIPPDSVETPTDSETDGSTPVADFDAPGTTQKDEIVEIHEENEVASGTQSGGTEAEAVPAQKERPPAPSSFVFQEETKEQSKMEDTLEHTDKEVSVETVSILSKTEGTQEADQYADEKTKDVPFFEGLEGSIDTGITVSREKVTEVALKGEGTEEAECKKDDALELQSHAKSPPSPVEREMVVQVEREKTEAEPTHVNEEKLEHETAVTVSEEVSKQLLQTVNVPIIDGAKEVSSLEGSPPPCLGQEEAVCTKIQVQSSEASFTLTAAAEEEKVLGETANILETGETLEPAGAHLVLEEKSSEKNEDFAAHPGEDAVPTGPDCQAKSTPVIVSATTKKGLSSDLEGEKTTSLKWKSDEVDEQVACQEVKVSVAIEDLEPENGILELETKSSKLVQNIIQTAVDQFVRTEETATEMLTSELQTQAHVIKADSQDAGQETEKEGEEPQASAQDETPITSAKEESESTAVGQAHSDISKDMSEASEKTMTVEVEGSTVNDQQLEEVVLPSEEEGGGAGTKSVPEDDGHALLAERIEKSLVEPKEDEKGDDVDDPENQNSALADTDASGGLTKESPDTNGPKQKEKEDAQEVELQEGKVHSESDKAITPQAQEELQKQERESAKSELTES
notes: AKAP12, endogenous in HEK293 cells, detected with anti-AKAP12 antibody; also called native AKAP12; endogenously expressed AKAP12; source: endogenous, HEK293 whole-cell lysate

binding [2]: no binding (condition: with 8 M urea)
B2: HA-AKAP12 (840-1782) (domain or fragment, human, UniProt Q02952 840-1782, looked up)
chain: DSDVPAVVPLSEYDAVEREKMEAQQAQKSAEQPEQKAATEVSKELSESQVHMMAAAVADGTRAATIIEERSPSWISASVTEPLEQVEAEAALLTEEVLEREVIAEEEPPTVTEPLPENREARGDTVVSEAELTPEAVTAAETAGPLGAEEGTEASAAEETTEMVSAVSQLTDSPDTTEEATPVQEVEGGVPDIEEQERRTQEVLQAVAEKVKEESQLPGTGGPEDVLQPVQRAEAERPEEQAEASGLKKETDVVLKVDAQEAKTEPFTQGKVVGQTTPESFEKAPQVTESIESSELVTTCQAETLAGVKSQEMVMEQAIPPDSVETPTDSETDGSTPVADFDAPGTTQKDEIVEIHEENEVASGTQSGGTEAEAVPAQKERPPAPSSFVFQEETKEQSKMEDTLEHTDKEVSVETVSILSKTEGTQEADQYADEKTKDVPFFEGLEGSIDTGITVSREKVTEVALKGEGTEEAECKKDDALELQSHAKSPPSPVEREMVVQVEREKTEAEPTHVNEEKLEHETAVTVSEEVSKQLLQTVNVPIIDGAKEVSSLEGSPPPCLGQEEAVCTKIQVQSSEASFTLTAAAEEEKVLGETANILETGETLEPAGAHLVLEEKSSEKNEDFAAHPGEDAVPTGPDCQAKSTPVIVSATTKKGLSSDLEGEKTTSLKWKSDEVDEQVACQEVKVSVAIEDLEPENGILELETKSSKLVQNIIQTAVDQFVRTEETATEMLTSELQTQAHVIKADSQDAGQETEKEGEEPQASAQDETPITSAKEESESTAVGQAHSDISKDMSEASEKTMTVEVEGSTVNDQQLEEVVLPSEEEGGGAGTKSVPEDDGHALLAERIEKSLVEPKEDEKGDDVDDPENQNSALADTDASGGLTKESPDTNGPKQKEKEDAQEVELQEGKVHSESDKAITPQAQEELQKQERESAKSELTES
notes: AKAP12, human, C-terminal fragment, residues 840-1782; also called AKAP12 C-terminal (840-1782) fragment; source: HEK293, transfected (pcDNA3.1), in whole-cell lysate

binding [3]: no binding (condition: with 8 M urea)
B3: HA-AKAP12 (1-938) (domain or fragment, human, UniProt Q02952 1-938, looked up)
chain: MGAGSSTEQRSPEQPPEGSSTPAEPEPSGGGPSAEAAPDTTADPAIAASDPATKLLQKNGQLSTINGVAEQDELSLQEGDLNGQKGALNGQGALNSQEEEEVIVTEVGQRDSEDVSKRDSDKEMATKSAVVHDITDDGQEETPEIIEQIPSSESNLEELTQPTESQANDIGFKKVFKFVGFKFTVKKDKTEKPDTVQLLTVKKDEGEGAAGAGDHKDPSLGAGEAASKESEPKQSTEKPEETLKREQSHAEISPPAESGQAVEECKEEGEEKQEKEPSKSAESPTSPVTSETGSTFKKFFTQGWAGWRKKTSFRKPKEDEVEASEKKKEQEPEKVDTEEDGKAEVASEKLTASEQAHPQEPAESAHEPRLSAEYEKVELPSEEQVSGSQGPSEEKPAPLATEVFDEKIEVHQEEVVAEVHVSTVEERTEEQKTEVEETAGSVPAEELVEMDAEPQEAEPAKELVKLKETCVSGEDPTQGADLSPDEKVLSKPPEGVVSEVEMLSSQERMKVQGSPLKKLFTSTGLKKLSGKKQKGKRGGGDEESGEHTQVPADSPDSQEEQKGESSASSPEEPEEITCLEKGLAEVQQDGEAEEGATSDGEKKREGVTPWASFKKMVTPKKRVRRPSESDKEDELDKVKSATLSSTESTASEMQEEMKGSVEEPKPEEPKRKVDTSVSWEALICVGSSKKRARRGSSSDEEGGPKAMGGDHQKADEAGKDKETGTDGILAGSQEHDPGQGSSSPEQAGSPTEGEGVSTWESFKRLVTPRKKSKSKLEEKSEDSIAGSGVEHSTPDTEPGKEESWVSIKKFIPGRRKKRPDGKQEQAPVEDAGPTGANEDDSDVPAVVPLSEYDAVEREKMEAQQAQKSAEQPEQKAATEVSKELSESQVHMMAAAVADGTRAATIIEERSPSWISASVTEPLEQVEAEAALLTEEVLE
notes: AKAP12, human, N-terminal fragment, residues 1-938; also called AKAP12 N-terminal (1-938) fragment; source: HEK293, transfected (pcDNA3.1), in whole-cell lysate
